Measured values: patent US20240299380A1, “APPLICATION OF COMPOUND IN PREPARATION OF DRUG FOR TREATING MYELOFIBROSIS AND RELATED SYMPTOMS/SIGNS THEREOF, AND USE OF COMPOUND” (Betta Pharmaceuticals Co., Ltd, priority 2021, published 2024)

Test system: SET-2 cells with JAK2V617F activation mutation
Assay: CTG cell proliferation assay, SET-2 cells
Format: cell-based, human
Experimental: The effects of compound 1 on proliferation of human myeloproliferative tumor cells HEL and SET-2 cells with JAK2V617F activation mutation were tested using CTG assay in this example to evaluate half inhibitory rate (IC50) of compound 1 on HEL and SET-2 cell proliferation.
• a) HEL cells were cultured in RPMI 1640 medium containing 1% PS and 10% FBS. […] The cells were incubated in a humidified incubator with 5% carbon dioxide (CO2) at 37° C.
• a) Cells were harvested upon reaching a certain density. • b) Cells were resuspended in corresponding medium with a certain density. • c) 30 μL of cell suspension was added into each well of a 384-well plate. For HEL, the density was 1800 cells/well, and for SET-2, 2000 cells/well. • d) Cells were incubated overnight in a humidified incubator with 5% CO2 at 37° C.
The compounds were diluted with DMSO 6.67 fold from 20 mM to 3 mM, then 3-fold serial dilutions were conducted to make 10 concentrations for each compound. Staurosporine was diluted with DMSO 6.67 fold from 20 mM to 3 mM, followed by 3-fold serial dilutions to make 10 concentrations. The vehicle control consisted of 100% DMSO, and the positive control was 3 mM Staurosporine.
• a) 30 μL CTG reagent (CelltiterGlo kit) was added to each well, and the plate was subjected to orbital shaking for 2 minutes, then incubated at room temperature in the dark for 30 minutes. • b) Luminescence values were obtained using Envision.
IC50 (the half maximal inhibitory concentration) was calculated with GraphPad Prism 8 software and following nonlinear fitting formula: […]
LUMHigh is the average value of 0.33% DMSO wells, LUMempd is the value of each well of the compound, LUMLow is the average value of 10 μM Staurosporine wells.

[1] = curve fit parameter (inhibition)

Cc1nc2ncc(-c3cn(C)c(=O)c4[nH]ccc34)nc2n1Cc1ccc(C(F)(F)F)cc1 [Compound 1, 6-methyl-4-(2-methyl-1-(4-(trifluoromethyl)benzyl)-1H-imidazo[4,5-b]pyrazin-6-yl)-1H-py rrolo[2,3-c]pyridin-7(6H)-one]
Hillslope (curve fit parameter): 1.6
Bottom [1]: 4.7
Top [1]: 104.6
